From publication PMC9537309

T1: FLAG-tagged DND1 wild-type (Dead End, full-length human protein 1-353) (human) (UniProt Q8IYX4)
T1 sequence: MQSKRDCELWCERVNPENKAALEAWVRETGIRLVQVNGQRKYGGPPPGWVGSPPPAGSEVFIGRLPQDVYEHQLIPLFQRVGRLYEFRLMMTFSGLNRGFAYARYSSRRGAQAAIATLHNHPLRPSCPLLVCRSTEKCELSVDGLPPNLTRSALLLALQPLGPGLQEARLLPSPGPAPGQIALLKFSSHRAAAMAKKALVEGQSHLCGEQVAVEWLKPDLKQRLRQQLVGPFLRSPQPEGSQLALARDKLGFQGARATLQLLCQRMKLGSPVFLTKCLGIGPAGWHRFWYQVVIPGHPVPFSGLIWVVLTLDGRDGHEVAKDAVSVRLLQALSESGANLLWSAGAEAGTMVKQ


Biological target: T1, FLAG-tagged DND1 wild-type (Dead End, full-length human protein 1-353) (human)
Assay: affinity purification with mass spectrometry; lysate of HEK293T cells transfected with FLAG-tagged DND1 WT, R98A or 1-235 on FLAG-M2 magnetic beads overnight at 4 °C; IP-Lysis buffer 50 mM Tris-HCl pH 7.4, 150 mM NaCl, 1 mM EDTA, 0.5% Triton X-100; trypsin digestion on the beads, shotgun LC-MS/MS; three biological replicates; no RNase treatment described

Row | Binder | binding
1 | DHX30 (protein, UniProt Q7L2E3 1-1194) MFSLDSFRKDRAQHRQRQCKLPPPRLPPMCVNPTPGGTISRASRDLLKEFPQPKNLLNSVIGRALGISHAKDKLVYVHTNGPKKKKVTLHIKWPKSVEVEGYGSKKIDAERQAAAAACQLFKGWGLLGPRNELFDAAKYRVLADRFGSPADSWWRPEPTMPPTSWRQLNPESIRPGGPGGLSRSLGREEEEDEEEELEEGTIDVTDFLSMTQQDSHAPLRDSRGSSFEMTDDDSAIRALTQFPLPKNLLAKVIQIATSSSTAKNLMQFHTVGTKTKLSTLTLLWPCPMTFVAKGRRKAEAENKAAALACKKLKSLGLVDRNNEPLTHAMYNLASLRELGETQRRPCTIQVPEPILRKIETFLNHYPVESSWIAPELRLQSDDILPLGKDSGPLSDPITGKPYVPLLEAEEVRLSQSLLELWRRRGPVWQEAPQLPVDPHRDTILNAIEQHPVVVISGDTGCGKTTRIPQLLLERYVTEGRGARCNVIITQPRRISAVSVAQRVSHELGPSLRRNVGFQVRLESKPPSRGGALLFCTVGILLRKLQSNPSLEGVSHVIVDEVHERDVNTDFLLILLKGLQRLNPALRLVLMSATGDNERFSRYFGGCPVIKVPGFMYPVKEHYLEDILAKLGKHQYLHRHRHHESEDECALDLDLVTDLVLHIDARGEPGGILCFLPGWQEIKGVQQRLQEALGMHESKYLILPVHSNIPMMDQKAIFQQPPVGVRKIVLATNIAETSITINDIVHVVDSGLHKEERYDLKTKVSCLETVWVSRANVIQRRGRAGRCQSGFAYHLFPRSRLEKMVPFQVPEILRTPLENLVLQAKIHMPEKTAVEFLSKAVDSPNIKAVDEAVILLQEIGVLDQREYLTTLGQRLAHISTDPRLAKAIVLAAIFRCLHPLLVVVSCLTRDPFSSSLQNRAEVDKVKALLSHDSGSDHLAFVRAVAGWEEVLRWQDRSSRENYLEENLLYAPSLRFIHGLIKQFSENIYEAFLVGKPSDCTLASAQCNEYSEEEELVKGVLMAGLYPNLIQVRQGKVTRQGKFKPNSVTYRTKSGNILLHKSTINREATRLRSRWLTYFMAVKSNGSVFVRDSSQVHPLAVLLLTDGDVHIRDDGRRATISLSDSDLLRLEGDSRTVRLLKELRRALGRMVERSLRSELAALPPSVQEEHGQLLALLAELLRGPCGSFDVRKTADD | binds
2 | MATR3 (protein, UniProt P43243 1-847) MSKSFQQSSLSRDSQGHGRDLSAAGIGLLAAATQSLSMPASLGRMNQGTARLASLMNLGMSSSLNQQGAHSALSSASTSSHNLQSIFNIGSRGPLPLSSQHRGDADQASNILASFGLSARDLDELSRYPEDKITPENLPQILLQLKRRRTEEGPTLSYGRDGRSATREPPYRVPRDDWEEKRHFRRDSFDDRGPSLNPVLDYDHGSRSQESGYYDRMDYEDDRLRDGERCRDDSFFGETSHNYHKFDSEYERMGRGPGPLQERSLFEKKRGAPPSSNIEDFHGLLPKGYPHLCSICDLPVHSNKEWSQHINGASHSRRCQLLLEIYPEWNPDNDTGHTMGDPFMLQQSTNPAPGILGPPPPSFHLGGPAVGPRGNLGAGNGNLQGPRHMQKGRVETSRVVHIMDFQRGKNLRYQLLQLVEPFGVISNHLILNKINEAFIEMATTEDAQAAVDYYTTTPALVFGKPVRVHLSQKYKRIKKPEGKPDQKFDQKQELGRVIHLSNLPHSGYSDSAVLKLAEPYGKIKNYILMRMKSQAFIEMETREDAMAMVDHCLKKALWFQGRCVKVDLSEKYKKLVLRIPNRGIDLLKKDKSRKRSYSPDGKESPSDKKSKTDGSQKTESSTEGKEQEEKSGEDGEKDTKDDQTEQEPNMLLESEDELLVDEEEAAALLESGSSVGDETDLANLGDVASDGKKEPSDKAVKKDGSASAAAKKKLKKVDKIEELDQENEAALENGIKNEENTEPGAESSENADDPNKDTSENADGQSDENKDDYTIPDEYRIGPYQPNVPVGIDYVIPKTGFYCKLCSLFYTNEEVAKNTHCSSLPHYQKLKKFLNKLAEERRQKKET | binds
3 | HNRNPL (protein, UniProt P14866 1-589) MSRRLLPRAEKRRRRLEQRQQPDEQRRRSGAMVKMAAAGGGGGGGRYYGGGSEGGRAPKRLKTDNAGDQHGGGGGGGGGAGAAGGGGGGENYDDPHKTPASPVVHIRGLIDGVVEADLVEALQEFGPISYVVVMPKKRQALVEFEDVLGACNAVNYAADNQIYIAGHPAFVNYSTSQKISRPGDSDDSRSVNSVLLFTILNPIYSITTDVLYTICNPCGPVQRIVIFRKNGVQAMVEFDSVQSAQRAKASLNGADIYSGCCTLKIEYAKPTRLNVFKNDQDTWDYTNPNLSGQGDPGSNPNKRQRQPPLLGDHPAEYGGPHGGYHSHYHDEGYGPPPPHYEGRRMGPPVGGHRRGPSRYGPQYGHPPPPPPPPEYGPHADSPVLMVYGLDQSKMNCDRVFNVFCLYGNVEKVKFMKSKPGAAMVEMADGYAVDRAITHLNNNFMFGQKLNVCVSKQPAIMPGQSYGLEDGSCSYKDFSESRNNRFSTPEQAAKNRIQHPSNVLHFFNAPLEVTEENFFEICDELGVKRPSSVKVFSGKSERSSSGLLEWESKSDALETLGFLNHYQMKNPNGPYPYTLKLCFSTAQHAS | binds
4 | MEX3A (protein, UniProt A1L020 1-520) MPSLVVSGIMERNGGFGELGCFGGSAKDRGLLEDERALQLALDQLCLLGLGEPPAPTAGEDGGGGGGGAPAQPAAPPQPAPPPPPAAPPAAPTAAPAAQTPQPPTAPKGASDAKLCALYKEAELRLKGSSNTTECVPVPTSEHVAEIVGRQGCKIKALRAKTNTYIKTPVRGEEPVFMVTGRREDVATARREIISAAEHFSMIRASRNKSGAAFGVAPALPGQVTIRVRVPYRVVGLVVGPKGATIKRIQQQTNTYIITPSRDRDPVFEITGAPGNVERAREEIETHIAVRTGKILEYNNENDFLAGSPDAAIDSRYSDAWRVHQPGCKPLSTFRQNSLGCIGECGVDSGFEAPRLGEQGGDFGYGGYLFPGYGVGKQDVYYGVAETSPPLWAGQENATPTSVLFSSASSSSSSSAKARAGPPGAHRSPATSAGPELAGLPRRPPGEPLQGFSKLGGGGLRSPGGGRDCMVCFESEVTAALVPCGHNLFCMECAVRICERTDPECPVCHITATQAIRIFS | binds

Results, then the binder that gave them:

Row | binding | Binder
5 | binds | RNA helicase MOV10 (protein, UniProt Q9HCE1 1-1003) MPSKFSCRQLREAGQCFESFLVVRGLDMETDRERLRTIYNRDFKISFGTPAPGFSSMLYGMKIANLAYVTKTRVRFFRLDRWADVRFPEKRRMKLGSDISKHHKSLLAKIFYDRAEYLHGKHGVDVEVQGPHEARDGQLLIRLDLNRKEVLTLRLRNGGTQSVTLTHLFPLCRTPQFAFYNEDQELPCPLGPGECYELHVHCKTSFVGYFPATVLWELLGPGESGSEGAGTFYIARFLAAVAHSPLAAQLKPMTPFKRTRITGNPVVTNRIEEGERPDRAKGYDLELSMALGTYYPPPRLRQLLPMLLQGTSIFTAPKEIAEIKAQLETALKWRNYEVKLRLLLHLEELQMEHDIRHYDLESVPMTWDPVDQNPRLLTLEVPGVTESRPSVLRGDHLFALLSSETHQEDPITYKGFVHKVELDRVKLSFSMSLLSRFVDGLTFKVNFTFNRQPLRVQHRALELTGRWLLWPMLFPVAPRDVPLLPSDVKLKLYDRSLESNPEQLQAMRHIVTGTTRPAPYIIFGPPGTGKTVTLVEAIKQVVKHLPKAHILACAPSNSGADLLCQRLRVHLPSSIYRLLAPSRDIRMVPEDIKPCCNWDAKKGEYVFPAKKKLQEYRVLITTLITAGRLVSAQFPIDHFTHIFIDEAGHCMEPESLVAIAGLMEVKETGDPGGQLVLAGDPRQLGPVLRSPLTQKHGLGYSLLERLLTYNSLYKKGPDGYDPQFITKLLRNYRSHPTILDIPNQLYYEGELQACADVVDRERFCRWAGLPRQGFPIIFHGVMGKDEREGNSPSFFNPEEAATVTSYLKLLLAPSSKKGKARLSPRSVGVISPYRKQVEKIRYCITKLDRELRGLDDIKDLKVGSVEEFQGQERSVILISTVRSSQSFVQLDLDFNLGFLKNPKRFNVAVTRAKALLIIVGNPLLLGHDPDWKVFLEFCKENGGYTGCPFPAKLDLQQGQNLLQGLSKLSPSTSGPHSHDYLPQEREGEGGLSLQVEPEWRNEL
6 | binds | TRAP1 (protein, UniProt Q12931 60-704) STQTAEDKEEPLHSIISSTESVQGSTSKHEFQAETKKLLDIVARSLYSEKEVFIRELISNASDALEKLRHKLVSDGQALPEMEIHLQTNAEKGTITIQDTGIGMTQEELVSNLGTIARSGSKAFLDALQNQAEASSKIIGQFGVGFYSAFMVADRVEVYSRSAAPGSLGYQWLSDGSGVFEIAEASGVRTGTKIIIHLKSDCKEFSSEARVRDVVTKYSNFVSFPLYLNGRRMNTLQAIWMMDPKDVREWQHEEFYRYVAQAHDKPRYTLHYKTDAPLNIRSIFYVPDMKPSMFDVSRELGSSVALYSRKVLIQTKATDILPKWLRFIRGVVDSEDIPLNLSRELLQESALIRKLRDVLQQRLIKFFIDQSKKDAEKYAKFFEDYGLFMREGIVTATEQEVKEDIAKLLRYESSALPSGQLTSLSEYASRMRAGTRNIYYLCAPNRHLAEHSPYYEAMKKKDTEVLFCFEQFDELTLLHLREFDKKKLISVETDIVVDHYKEEKFEDRSPAAECLSEKETEELMAWMRNVLGSRVTNVKVTLRLDTHPAMVTVLEMGAARHFLRMQQLAKTQEERAQLLQPTLEINPRHALIKKLNQLRASEPGLAQLLVDQIYENAMIAAGLVDDPRAMVGRLNELLVKALERH

No constants are given. Whether binding was seen depends on the method and setting. In cells and extracts the contact can be indirect. Here binding means that the protein was enriched with, or labelled near, the bait; the list need not be complete. Sequences can lack the tags named with a protein.
